No constants are given. Whether binding was seen depends on the method and setting. In cells and extracts the contact can be indirect. Here binding means that the protein was enriched with, or labelled near, the bait; the list need not be complete. Tags and fused reporters may be left off the sequences shown.
Biological target: T1, Flag-tagged Sugt1 (suppressor of G2 allele of SKP1 homolog) (UniProt Q9CX34)
T1 sequence: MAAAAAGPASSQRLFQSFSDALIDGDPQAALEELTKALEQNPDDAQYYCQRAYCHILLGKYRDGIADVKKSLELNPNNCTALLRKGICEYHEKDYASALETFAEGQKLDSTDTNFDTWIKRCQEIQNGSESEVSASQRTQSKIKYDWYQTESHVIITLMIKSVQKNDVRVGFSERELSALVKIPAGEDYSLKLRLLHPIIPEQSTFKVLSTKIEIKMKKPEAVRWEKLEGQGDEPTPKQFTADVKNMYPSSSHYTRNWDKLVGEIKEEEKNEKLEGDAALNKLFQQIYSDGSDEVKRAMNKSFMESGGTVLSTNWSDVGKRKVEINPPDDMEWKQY
Experiment: affinity purification with mass spectrometry; Flag-Sugt1 overexpressed in C2C12 myoblasts, IP with anti-Flag magnetic beads, retrieved proteins analysed by LC/MS; cells with empty pcDNA3.1(+) vector as negative control

B1: Trim21 (E3 ubiquitin-protein ligase) (protein, UniProt Q62191 1-470)
chain: MSPSTTSKMSLEKMWEEVTCSICLDPMVEPMSIECGHCFCKECIFEVGKNGGSSCPECRQQFLLRNLRPNRHIANMVENLKQIAQNTKKSTQETHCMKHGEKLHLFCEEDGQALCWVCAQSGKHRDHTRVPIEEAAKVYQEKIHVVLEKLRKGKELAEKMEMDLTMQRTDWKRNIDTQKSRIHAEFALQNSLLAQEEQRQLQRLEKDQREYLRLLGKKEAELAEKNQALQELISELERRIRGSELELLQEVRIILERSGSWNLDTLDIDAPDLTSTCPVPGRKKMLRTCWVHITLDRNTANSWLIISKDRRQVRMGDTHQNVSDNKERFSNYPMVLGAQRFSSGKMYWEVDVTQKEAWDLGVCRDSVQRKGQFSLSPENGFWTIWLWQDSYEAGTSPQTTLHIQVPPCQIGIFVDYEAGVVSFYNITDHGSLIYTFSECVFAGPLRPFFNVGFNYSGGNAAPLKLCPLKM
  binding: binds

Reference: PMC11749260
